In PubChem BioAssay AID2517 (National Center for Advancing Translational Sciences (NCATS), 2010):
Among all 350,000 compounds or so, about 1,200 (0.34%) were called active. This list was built around the results that the source calls inconclusive (neither active nor inactive); the mix of calls is not that of the screen. The call rests on the fitted dose curve; in most records, active means well fitted inhibition curve with a large enough effect; inconclusive means small, poorly fitted or top-dose-only effect; inactive means no such curve, though single readings can be large or run the other way. Potencies beside an inconclusive call are fits to weak or partial responses and may not hold up.

Protein sequences, listed by entry. Tags and fused reporters are not part of them.
UniProt P27695, whole entry, looked up: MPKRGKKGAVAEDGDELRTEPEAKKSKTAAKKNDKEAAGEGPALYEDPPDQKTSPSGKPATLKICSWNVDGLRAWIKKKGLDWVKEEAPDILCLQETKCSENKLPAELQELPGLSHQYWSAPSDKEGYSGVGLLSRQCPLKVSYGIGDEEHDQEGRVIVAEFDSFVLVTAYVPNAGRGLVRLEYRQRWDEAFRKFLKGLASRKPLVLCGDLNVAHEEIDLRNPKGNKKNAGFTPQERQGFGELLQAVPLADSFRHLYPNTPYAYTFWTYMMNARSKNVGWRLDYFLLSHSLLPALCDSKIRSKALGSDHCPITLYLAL

Biological target: DNA repair nuclease/redox regulator APEX1 (Homo sapiens) (UniProt P27695)
Assay: qHTS Assay for Inhibitors of the Human Apurinic/apyrimidinic Endonuclease 1 (APE1); further: nearly all actives have a fitted effect of over 55% in size
Details: recombinant APE1, TAMRA/BHQ-2 abasic DNA cleavage fluorescence; series mostly up to 65.8 µM
How it was run: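 APE1 at 0.75 nM final was preincubated with compound 15 min at room temperature, then 50 nM double-stranded THF abasic-site substrate (5'-TAMRA/3'-BHQ-2) was added. Fluorescence (ex 525/em 598 nm) was read kinetically; third-minus-first read gave activity.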
Potency means the concentration at half of the fitted maximal effect.

Row | Structure (SMILES) | Potency
1 | CC(C)Oc1cc(NC(=O)CS(=O)CC(=O)Nc2cccc(C(F)(F)F)c2)c(Cl)cc1Cl (stereo not given) | inconclusive: 28.2 µM [inhibitor, partial curve]
2 | Cc1nc2c(C)cccn2c1/C(O)=C1\C(=O)C(=O)N(CCN2CCOCC2)C1c1cccs1 (stereo not given) | inconclusive: 7.08 µM [inhibitor, single point]
3 | O=C(COS(=O)c1ccccc1)Nc1cc(Cl)ccc1N1CCOCC1 (stereo not given) | inconclusive: 8.91 µM [inhibitor, single point]
4 | CC(C)NC(=O)c1sc(=S)n2c1[nH]c(=O)c1ccc(C(=O)NCCc3ccc(Cl)cc3)cc12 | inconclusive: 23.8 µM [inhibitor, single point]
5 | CN(C)S(=O)(=O)c1cccc(NC(=O)COC(=O)/C=C/c2ccco2)c1 | inconclusive: 25.1 µM [inhibitor, partial curve]
6 | Fc1ccc(OCCOCCOc2cccc3[nH]ccc23)cc1 | inconclusive: 39.8 µM [inhibitor, single point]
7 | CCOc1cc(C(=O)OCC(=O)NCc2ccco2)cc(OCC)c1OCC | inconclusive: 39.8 µM [inhibitor, single point]
8 | CN1CCN(c2ncc3nc(-c4cccs4)c(=O)n(Cc4cccs4)c3n2)CC1 | inconclusive: 4.47 µM [inhibitor, single point]
9 | NC(=O)c1cc(NC(=O)c2cc(Br)c(Br)s2)cc(C(N)=O)c1 | inactive
10 | CCc1ccccc1NC(=S)N(CCc1ccncc1)C(C)C | inconclusive: 25.1 µM [inhibitor, single point]
11 | COC(=O)c1cc(OC)c(OC)cc1NC(=O)CSc1ccc(C)cc1 | inconclusive: 28.2 µM [inhibitor, single point]
12 | COc1ccc(-c2nnc(Nc3ccc(S(=O)(=O)Nc4nccs4)cc3)c3ccccc23)cc1 | inconclusive: 8.91 µM [inhibitor, full curve]
13 | O=C(CSCc1c(Cl)cccc1Cl)NCc1ccccn1 | inconclusive: 44.7 µM [inhibitor, single point]
14 | O=C(CNS(=O)(=O)c1c(Cl)cccc1Cl)OCC(=O)c1ccc[nH]1 | inactive
15 | N=C1C(=O)OCC1c1cc(Cl)ccc1NC(=O)Nc1ccccc1 (stereo not given) | inconclusive: 0.316 µM [inhibitor, partial curve, poor fit]
16 | Cn1c(-n2cccc2)c(-c2c(-c3ccccc3)[nH]c3c2c(=O)[nH]c(=O)n3C)c(=O)[nH]c1=O | inconclusive: 11.9 µM [inhibitor, partial curve]
17 | CC(=O)C1=C(O)C(=O)N(Cc2ccco2)C1c1ccc(F)cc1 (stereo not given) | inconclusive: 0.0891 µM [inhibitor, full curve, poor fit]
18 | O=C(NNc1ccc(-c2csnn2)cc1)c1cc(Cl)cc(Cl)c1 | inconclusive: 0.0251 µM [inhibitor, full curve, poor fit]
19 | Cc1c(Cl)cccc1NC(=O)CC1SCCNC1=O (stereo not given) | inconclusive: 7.94 µM [inhibitor, single point]
20 | CC(CCc1ccccc1)NC(=O)COc1cc(F)ccc1[N+](=O)[O-] (stereo not given) | inconclusive: 44.7 µM [inhibitor, single point]

Row | Structure (SMILES) | Potency
21 | Cc1c(F)cccc1Cn1cnc2c(cnn2C(C)(C)C)c1=O | inactive
22 | O=C(c1ccccc1)N(Cc1nc2ccccc2c(=O)[nH]1)C1CCCC1 | inconclusive: 10 µM [inhibitor, single point]
23 | CCN1CCS/C1=C/C=C/C1=[N+](CC)CCS1 | inactive
24 | COC(=O)c1cccc(NC(=O)NC(=O)c2ccccc2Cl)c1 | inconclusive: 39.8 µM [inhibitor, partial curve, poor fit]
25 | COc1ccc(S(=O)(=O)N2CCCCCC2)cc1NC(=O)Cc1cc(OC)c(OC)c(OC)c1 | inconclusive: 8.91 µM [inhibitor, single point]
26 | O=C(Nc1ccccc1)c1nnn(Cc2ccccc2)c1NC(=O)C(F)(F)F | inconclusive: 11.2 µM [inhibitor, partial curve]
27 | CN(C)/C=C1\SC(=S)N(c2ccc(Br)cc2)C1=O | active: 28.2 µM
28 | CC(C)(C)OC(=O)NCCCC[C@H](NC(=O)c1[nH]cnc1C(=O)N[C@@H](Cc1ccccc1)C(=O)OC(C)(C)C)C(=O)OC(C)(C)C | inconclusive: 25.1 µM [inhibitor, single point]
29 | Cn1c(=O)c(NCCc2ccccc2)c2c3c(cccc31)C(=O)c1ccccc1-2 | active: 31.6 µM
30 | COc1cccc(-c2csc(N3CCN(C(=S)Nc4ccc(Cl)cc4)CC3)n2)c1 | inconclusive: 44.7 µM [inhibitor, single point]
31 | COc1ccc(OCCSc2nnc(-c3cccnc3)n2N)cc1 | inconclusive: 8.91 µM [inhibitor, single point]
32 | O=C(O)c1cc(-c2ccc(/C=N/NC(=S)Nc3ccccc3)o2)ccc1Cl | inconclusive: 20 µM [inhibitor, single point]
33 | COc1cccc(-c2[nH]nc3c2C(c2ccoc2)C(C#N)=C(N)O3)c1 (stereo not given) | inconclusive: 28.2 µM [inhibitor, partial curve]
34 | COc1ccc(Br)cc1CNc1ccc(O)cc1 | inactive
35 | COc1ccc(-c2cc(C(=O)OCC(=O)c3cccc([N+](=O)[O-])c3)c3cc(C)ccc3n2)cc1 | inconclusive: 8.91 µM [inhibitor, single point]
36 | O=C(Cn1cc(/C=N/NC(=O)c2cccc3ccccc23)c2ccccc21)Nc1ccc(F)cc1 | inconclusive: 1.78 µM [inhibitor, partial curve]
37 | CC(C)(C)n1nc2c(c1NC(=O)c1ccc(S(=O)(=O)N3CCCCC3)cc1)CS(=O)C2 (stereo not given) | inconclusive: 10 µM [inhibitor, single point]
38 | COc1cc(O)c(C(=O)/C=C/c2ccc(O)c(OC)c2)c(OC)c1 | inconclusive: 12.6 µM [inhibitor, partial curve, poor fit]
39 | COc1ccc(OC)c(-c2c3cc(O)c(=O)cc-3oc3cc(O)c(O)cc23)c1 | active: 31.6 µM
40 | Cc1noc(C)c1-c1nccc(NCCN2CCOCC2)n1 | inconclusive: 0.0282 µM [inhibitor, full curve, poor fit]

In the list so far, these have a thiophene ring, fused or not:
Row | Structure (SMILES) | Potency
2 | Cc1nc2c(C)cccn2c1/C(O)=C1\C(=O)C(=O)N(CCN2CCOCC2)C1c1cccs1 (stereo not given) | inconclusive: 7.08 µM [inhibitor, single point]
8 | CN1CCN(c2ncc3nc(-c4cccs4)c(=O)n(Cc4cccs4)c3n2)CC1 | inconclusive: 4.47 µM [inhibitor, single point]
9 | NC(=O)c1cc(NC(=O)c2cc(Br)c(Br)s2)cc(C(N)=O)c1 | inactive
